According to patent publication US20170152308A1:
No constants are given. Whether binding was seen depends on the method and setting.

Assays:
[1] = biological target: His-huTDP-43 domain II (amino acid residues 99-204) (human); experiment: Western blot, 300 ng recombinant protein per lane, primary antibody 10 nM
[2] = biological target: His-huTDP-43 domain II (amino acid residues 99-204) (human); experiment: direct ELISA, TDP-43 fragments coated at 6.6 ug/ml, OD 450

binding [1]: no binding (tested: 10 nM) | binding [2]: no binding
B1: NI-205.41D1 (antibody, human IgG1, V domains shown)
VH: EVQLVESGGGLVQPGGSLRLSCAASGFTFSTYYMSWVRQAPGKGLEWVANIKQDGSEKYYVDSVKGRFTISRDNARNSLYLQMHSLRAEDTAVYYCASPPGWWGQGTLVTVSS
VL: DIVMTQTPLSLSVTPGQPASISCKSSQSLLHSDGKTYLYWYLQKPGQPPQLLIYEVSNRFSGVPDRFSGSGSGTDFTLKISRVEAEDVGVYYCMQSIQLPVTFGGGTKVEIK
